PubChem BioAssay AID1259405 | NCATS, 2018

Assay: 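Silenced genes that increase secreted GFP made by CHO cells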 (primary screen)
System: Chinese hamster CHO-K1 ovary cells with stable secreted eGFP expression
Reagents: single siRNA against mouse genes, 0.8 pmol siRNA per well (2 µl of 400 nM stock)
Time to read-out: 3 days
Measured: 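Percent of the per-plate non-targeting control median for intracellular GFP per well by laser scanning cytometry and for cell viability by ATP luminescence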
Direction: GFP, % of control: higher = more GFP per well, higher productivity; viability (ATP), % of control: higher = more viable cells (more ATP)
Active means: 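a knock-down is called active if GFP reaches 120% or more of non-targeting control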
Here is one part, drawn at random, of about 50,000 reagents tested. Of all reagents, about 4,000 (8%) were called active. 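Mouse siRNA library applied to hamster cells; one well for each siRNA.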 The numbers tell different reagents against one gene apart. No sequences are given here.

gene knocked down | reagent no. | GFP, % of control | viability (ATP), % of control | outcome
Ncs1 | 1 | 96.7 | 89.4 | inactive
Ncs1 | 2 | 71.9 | 84.2 | inactive
Ncs1 | 3 | 53.6 | 90.7 | inactive
Scart2 | 1 | 120 | 75 | active
Scart2 | 2 | 0 | 126 | inactive
Scart2 | 3 | 89.4 | 62.6 | inactive
Slc49a4 | 1 | 60.4 | 85.4 | inactive
Slc49a4 | 2 | 87.7 | 74.5 | inactive
Slc49a4 | 3 | 85.9 | 60 | inactive
Ssbp3 | 1 | 64.7 | 54.9 | inactive
Ssbp3 | 2 | 94.2 | 94.2 | inactive
Ssbp3 | 3 | 80.6 | 61.9 | inactive
Myh7 | 1 | 50.8 | 42.7 | inactive
Myh7 | 2 | 78.6 | 91.2 | inactive
Ccnl2 | 1 | 155 | 127 | active
Ccnl2 | 2 | 68.3 | 52.1 | inactive
Ccnl2 | 3 | 97.6 | 111 | inactive
Tex19.1 | 1 | 87.7 | 83.3 | inactive
Tex19.1 | 2 | 135 | 127 | active
Tex19.1 | 3 | 152 | 150 | active
Hfe | 1 | 134 | 121 | active
Hfe | 2 | 65 | 62.1 | inactive
Hfe | 3 | 84.1 | 63.8 | inactive
Dus4l | 1 | 51.6 | 36.1 | inactive
Dus4l | 2 | 74.3 | 95.9 | inactive
Dus4l | 3 | 47.9 | 63.5 | inactive
Gnai3 | 1 | 105 | 55.2 | inactive
Gnai3 | 2 | 98.2 | 67.8 | inactive
Gnai3 | 3 | 101 | 64.8 | inactive
Kctd10 | 1 | 116 | 128 | inactive
Kctd10 | 2 | 54.5 | 61.8 | inactive
Lpar4 | 1 | 55.9 | 52.8 | inactive
Lpar4 | 2 | 57.1 | 69.7 | inactive
Lpar4 | 3 | 78.1 | 72.1 | inactive
Dedd2 | 1 | 95 | 121 | inactive
Dedd2 | 2 | 103 | 79.6 | inactive
Dedd2 | 3 | 73.6 | 83.3 | inactive
Acp1 | 1 | 98.3 | 87.4 | inactive
Acp1 | 2 | 78.6 | 69.1 | inactive
Acp1 | 3 | 87.1 | 55.9 | inactive
Tmt1b | 1 | 96.8 | 105 | inactive
Tmt1b | 2 | 140 | 85 | active
Tmt1b | 3 | 53.7 | 80.7 | inactive
Cyp4a14 | 1 | 71.3 | 69 | inactive
Cyp4a14 | 2 | 83.2 | 82.7 | inactive
Cyp4a14 | 3 | 73.5 | 57.8 | inactive
Or56b2 | 1 | 83.5 | 90.1 | inactive
Or56b2 | 2 | 47.7 | 51.3 | inactive
Or56b2 | 3 | 53.6 | 58.7 | inactive
Slc24a2 | 1 | 81.7 | 104 | inactive
Slc24a2 | 2 | 76.6 | 100 | inactive
Slc24a2 | 3 | 33.8 | 71 | inactive
Cd244a | 1 | 88.8 | 59.4 | inactive
Cd244a | 2 | 54.2 | 29.8 | inactive
Cd244a | 3 | 66.7 | 51.1 | inactive
Sec16b | 1 | 134 | 111 | active
Sec16b | 2 | 45 | 52 | inactive
Sec16b | 3 | 63 | 67.1 | inactive
Creld2 | 1 | 77 | 88.9 | inactive
Creld2 | 2 | 98.3 | 74.8 | inactive
Creld2 | 3 | 104 | 126 | inactive
Trav13-5 | 1 | 83.3 | 97.6 | inactive
Trav13-5 | 2 | 66.8 | 80.4 | inactive
Trav13-5 | 3 | 91 | 79.8 | inactive
Angptl1 | 1 | 55.4 | 41 | inactive
Angptl1 | 2 | 111 | 124 | inactive
Asb8 | 1 | 94.8 | 83.7 | inactive
Asb8 | 2 | 91.6 | 71.3 | inactive
Asb8 | 3 | 85.4 | 67.8 | inactive
Mela | 1 | 111 | 75.1 | inactive
Mela | 2 | 84.3 | 53.6 | inactive
Mela | 3 | 91.3 | 81.5 | inactive
Sdr42e1 | 1 | 91.1 | 111 | inactive
Sdr42e1 | 2 | 69.2 | 74.1 | inactive
Tpm4 | 1 | 77 | 60 | inactive
Tpm4 | 2 | 97.2 | 85.3 | inactive
Tor3a | 1 | 75 | 67.4 | inactive
Tor3a | 2 | 54.7 | 75.9 | inactive
Tor3a | 3 | 93.6 | 75.4 | inactive
Lrp6 | 1 | 72.6 | 83.5 | inactive
Lrp6 | 2 | 46.2 | 62.4 | inactive
Lrp6 | 3 | 147 | 62.1 | active
Frmd6 | 1 | 67.5 | 85.7 | inactive
Frmd6 | 2 | 21 | 24.5 | inactive
Frmd6 | 3 | 92.6 | 106 | inactive

In a second layout: results already given
Sdr42e1 #2
- GFP, % of control: 69.2
- viability (ATP), % of control: 74.1
- outcome: inactive

Tpm4 #1
- GFP, % of control: 77
- viability (ATP), % of control: 60
- outcome: inactive

Tpm4 #2
- GFP, % of control: 97.2
- viability (ATP), % of control: 85.3
- outcome: inactive

Tor3a #1
- GFP, % of control: 75
- viability (ATP), % of control: 67.4
- outcome: inactive

Tor3a #2
- GFP, % of control: 54.7
- viability (ATP), % of control: 75.9
- outcome: inactive

Tor3a #3
- GFP, % of control: 93.6
- viability (ATP), % of control: 75.4
- outcome: inactive

Lrp6 #1
- GFP, % of control: 72.6
- viability (ATP), % of control: 83.5
- outcome: inactive
